Data as given in PubChem BioAssay AID1259425 (University of Nebraska Medical Center, 2018)
Here is an unselected part of about 14,000 reagents. Not all columns of the deposit are shown. No sequences are given here. Not given: the time to read-out.

Assay: 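Find knockdowns that reproduce the gene expression pattern seen when KSR1 is lost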 (primary screen)
Cells: HCT116 human colon cancer cells
Reagents: siRNA pool against human genes, 50 nM siRNA
Measurement: 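mRNA of six signature genes measured together by branched-DNA assay after 50 nM siRNA pool, blank removed, divided by geometric mean of two housekeeping genes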
Scale: BNIP3L mRNA: higher = more BNIP3L transcript after knockdown

TMEM8B (transmembrane protein 8B) showed BNIP3L mRNA, set 1 = 0.147.
Depletion of GAS1 (growth arrest specific 1) came out at: BNIP3L mRNA, set 1 = 0.179.
For TNFRSF6B (TNF receptor superfamily member 6b), the entry reads BNIP3L mRNA, set 1 = 0.279.
PIP4K2C (phosphatidylinositol-5-phosphate 4-kinase type 2 gamma) scored BNIP3L mRNA, set 1 = 0.193.
Depletion of KIZ (kizuna centrosomal protein) came out at: BNIP3L mRNA, set 1 = 0.16.
Against ADCY5 (adenylate cyclase 5), the entry reads BNIP3L mRNA, set 1 = 0.0669.
SPIN2A (spindlin family member 2A) gave BNIP3L mRNA, set 1 = 0.15.
Depletion of CXCL14 (C-X-C motif chemokine ligand 14) resulted in: BNIP3L mRNA, set 1 = 0.079.
Silencing of GPX5 (glutathione peroxidase 5) resulted in: BNIP3L mRNA, set 1 = 0.0888.
With knock-down of POU2F1 (POU class 2 homeobox 1), the record shows BNIP3L mRNA, set 1 = 0.0932.
Silencing of NR2E1 (nuclear receptor subfamily 2 group E member 1) resulted in: BNIP3L mRNA, set 1 = 0.0824.
With knock-down of ZFP36L2 (ZFP36 like 2 zinc finger CCCH-type), the screen gave BNIP3L mRNA, set 1 = 0.125.
After knock-down of RAB22A (RAB22A, member RAS oncogene family), the screen gave BNIP3L mRNA, set 1 = 0.0916.
Depletion of FBN3 (fibrillin 3) resulted in: BNIP3L mRNA, set 1 = 0.104.
Depletion of SIAH2 (siah E3 ubiquitin protein ligase 2) came out at: BNIP3L mRNA, set 1 = 0.0837.
Silencing of CAP2 (cyclase associated actin cytoskeleton regulatory protein 2) came out at: BNIP3L mRNA, set 1 = 0.126.

A stretch of the results above:
PIP4K2C (phosphatidylinositol-5-phosphate 4-kinase type 2 gamma) → BNIP3L mRNA, set 1: 0.193
KIZ (kizuna centrosomal protein) → BNIP3L mRNA, set 1: 0.16
ADCY5 (adenylate cyclase 5) → BNIP3L mRNA, set 1: 0.0669
SPIN2A (spindlin family member 2A) → BNIP3L mRNA, set 1: 0.15

Continued:
For UBE2K (ubiquitin conjugating enzyme E2 K) the deposit lists BNIP3L mRNA, set 1 = 0.123.
Knock-down of CYFIP1 (cytoplasmic FMR1 interacting protein 1) gave: BNIP3L mRNA, set 1 = 0.147.
Depletion of DDR2 (discoidin domain receptor tyrosine kinase 2) gave: BNIP3L mRNA, set 1 = 0.0614.
RAD51 (RAD51 recombinase) showed BNIP3L mRNA, set 1 = 0.173.
For LINC00312 (long independently transcribed non-coding RNA 312), the values are BNIP3L mRNA, set 1 = 0.12.
Against ZMYND15 (zinc finger MYND-type containing 15) the deposit lists BNIP3L mRNA, set 1 = 0.244.
LUZP4 (leucine zipper protein 4) gave BNIP3L mRNA, set 1 = 0.099.
Against ZNF250 (zinc finger protein 250) the deposit lists BNIP3L mRNA, set 1 = 0.176.
SSC4D scored BNIP3L mRNA, set 1 = 0.106.
After knock-down of ZDBF2 (zinc finger DBF-type containing 2), the screen gave BNIP3L mRNA, set 1 = 0.111.
Against NKG7 (natural killer cell granule protein 7) the deposit lists BNIP3L mRNA, set 1 = 0.182.
Against KIAA0513 the deposit lists BNIP3L mRNA, set 1 = 0.129.
